PubChem BioAssay AID686938, Drosophila RNAi Screening Center, 2013
In all, the deposit lists about 23,000 reagents; shown is a random part of those that have a named target and a result. Of all reagents, 75 (0.33%) are marked active. 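Raw plate signals without normalisation; calls rest on plate z-scores that were not deposited; ratio present for only 364 wells.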 Entries without a mark were called inactive. A plus sign joins genes that one reagent is predicted to hit. Not stated in the record: the dose of the treatment.

Aim: 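Looking for CRAC channel components and the factors controlling them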 (primary screen)
System: Drosophila S2R+ cells
Reagents: long dsRNA against Drosophila genes, about 0.25 µg dsRNA per well, roughly 10,000 cells
Timing: 5 days of knock-down before the calcium assay
Challenge: thapsigargin (SERCA pump blocker) to empty calcium stores; entry signal taken 4 min after adding it
Measurement: 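Per-well fluo-4 fluorescence in two replicates, unnormalised, measured in resting cells and 4 min after store depletion by the SERCA blocker thapsigargin; ratio of the two present in few wells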
Scale: calcium entry signal: higher = stronger calcium signal after store depletion; entry to resting ratio: higher = more calcium entry relative to resting level; resting calcium signal: higher = higher resting calcium signal
Rule for the call: 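Called when the plate z-score of the entry-to-rest ratio, mean of duplicates, falls below −3; wells with low overall dye signal (Fmax z below −2) or more than five off-targets excluded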
Calls: active = strongly reduced calcium entry; inactive = no strong reduction

Target gene | dsRNA | calcium entry signal, replicate 1 (fluorescence units) | calcium entry signal, replicate 2 (fluorescence units) | entry to resting ratio | resting calcium signal, replicate 1 (fluorescence units) | resting calcium signal, replicate 2 (fluorescence units)
CG15536 (GeneID 43610) | DRSC15072 | 2.89e7 | 4.08e7 | – | 1.63e7 | 1.99e7
CG15536 (GeneID 43610) | DRSC22844 | 2.91e7 | 4.53e7 | – | 1.50e7 | 1.90e7
l(2)k05911 (GeneID 34731) | DRSC02523 | 4.32e7 | 3.05e7 | – | 2.44e7 | 1.56e7
CG9483 (GeneID 34209) | DRSC03226 | 4.28e7 | – | – | 1.94e7 | –
Mst57Dc (GeneID 43121) | DRSC16745 | 4.18e7 | 4.27e7 | – | 2.11e7 | 1.79e7
CG5757 (GeneID 37062) | DRSC06951 | 4.06e7 | 4.02e7 | – | 1.88e7 | 1.90e7
Jon65Ai (GeneID 38685) | DRSC09731 | 2.25e7 | 3.77e7 | – | 1.17e7 | 1.82e7
CR11023 (GeneID 33155) | DRSC00302 | 3.32e7 | 3.29e7 | – | 1.64e7 | 1.52e7
Ccdc39 (GeneID 40595) | DRSC12286 | 2.69e7 | 4.62e7 | – | 1.28e7 | 2.16e7
Taldo (GeneID 37804) | DRSC04320 | 3.37e7 | – | – | 1.66e7 | –
CG11373 (GeneID 50152) | DRSC12170 | 4.00e7 | 3.04e7 | – | 2.07e7 | 1.46e7
l(2)37Cd (GeneID 35193) | DRSC02069 | 5.72e7 | – | – | 2.56e7 | –
Sry-alpha (GeneID 43571) | DRSC16867 | 4.62e7 | 4.84e7 | – | 2.40e7 | 2.49e7
Efhc1.1 (GeneID 32528) | DRSC20135 | 3.12e7 | 3.26e7 | – | 1.62e7 | 1.52e7
CG45105 (GeneID 41932) | DRSC15002 | 3.49e7 | 3.45e7 | – | 1.66e7 | 6.55e7
CG45105 (GeneID 41932) | DRSC15833 | 2.69e7 | 2.49e7 | – | 5.78e7 | 1.38e7
CG7248 (GeneID 39356) | DRSC10788 | 3.04e7 | 4.03e7 | – | 1.59e7 | 1.88e7
Rpn9 (GeneID 42802) | DRSC16840 | 3.71e7 | 3.75e7 | – | 1.96e7 | 1.92e7
C901 (GeneID 32032) | DRSC19351 | 3.89e7 | 5.74e7 | – | 1.83e7 | 2.68e7
CG6153 (GeneID 34675) | DRSC02935 | 3.98e7 | – | – | 2.05e7 | –
Rrp6 (GeneID 41798) | DRSC16223 | 2.49e7 | 1.90e7 | – | 1.79e7 | 1.29e7

The list goes on (7 carried over from the part before).
Target gene | dsRNA | calcium entry signal, replicate 1 (fluorescence units) | calcium entry signal, replicate 2 (fluorescence units) | entry to resting ratio | resting calcium signal, replicate 1 (fluorescence units) | resting calcium signal, replicate 2 (fluorescence units)
CG45105 (GeneID 41932) | DRSC15002 | 3.49e7 | 3.45e7 | – | 1.66e7 | 6.55e7
CG45105 (GeneID 41932) | DRSC15833 | 2.69e7 | 2.49e7 | – | 5.78e7 | 1.38e7
CG7248 (GeneID 39356) | DRSC10788 | 3.04e7 | 4.03e7 | – | 1.59e7 | 1.88e7
Rpn9 (GeneID 42802) | DRSC16840 | 3.71e7 | 3.75e7 | – | 1.96e7 | 1.92e7
C901 (GeneID 32032) | DRSC19351 | 3.89e7 | 5.74e7 | – | 1.83e7 | 2.68e7
CG6153 (GeneID 34675) | DRSC02935 | 3.98e7 | – | – | 2.05e7 | –
Rrp6 (GeneID 41798) | DRSC16223 | 2.49e7 | 1.90e7 | – | 1.79e7 | 1.29e7
pre-mod(mdg4)-W + pre-mod(mdg4)-Y + mod(mdg4) + 3 more | DRSC16328 | 1.98e7 | 3.05e7 | – | 2.68e7 | 1.31e7
prt (GeneID 117368) | DRSC16894 | 4.71e7 | 4.87e7 | – | 2.13e7 | 2.15e7
CG5382 (GeneID 42618) | DRSC15786 | 4.19e7 | 3.29e7 | – | 2.06e7 | 1.53e7
SuUR (GeneID 45739) | DRSC11292 | 3.07e7 | 4.13e7 | – | 1.48e7 | 1.83e7
CG30022 (GeneID 36233) | DRSC22405 | 1.82e7 | 2.79e7 | – | 1.04e7 | 1.17e7
l(3)80Fg (GeneID 3354941) | DRSC21645 | 3.41e7 | 3.61e7 | – | 1.90e7 | 1.57e7
l(3)80Fg (GeneID 3354941) | DRSC22171 | 2.89e7 | 3.26e7 | – | 1.40e7 | 1.87e7
CG10887 (GeneID 42399) | DRSC14277 | 2.07e7 | 2.49e7 | – | 3.15e7 | 1.35e7
rols (GeneID 39368) | DRSC09873 | 3.76e7 | 4.86e7 | – | 2.08e7 | 2.19e7
rols (GeneID 39368) | DRSC10254 | 3.23e7 | 4.53e7 | – | 1.63e7 | 2.03e7
rols (GeneID 39368) | DRSC10536 | 3.79e7 | 4.54e7 | – | 1.90e7 | 2.03e7
Osi16 (GeneID 318801) | DRSC12135 | 3.31e7 | 1.83e7 | – | 1.56e7 | 9.03e6
Osi16 (GeneID 318801) | DRSC21323 | 2.35e7 | 2.92e7 | – | 1.18e7 | 1.29e7
CG43795 (GeneID 5740629) | DRSC04192 | 3.24e7 | 3.73e7 | – | 1.70e7 | 1.75e7
CG43795 (GeneID 5740629) | DRSC04193 | 3.84e7 | 3.56e7 | – | 1.89e7 | 1.54e7
CG43795 (GeneID 5740629) | DRSC04194 | 3.46e7 | 4.43e7 | – | 1.80e7 | 2.08e7
CG43795 (GeneID 5740629) | DRSC04309 | 3.78e7 | 4.53e7 | – | 1.95e7 | 2.05e7
CG43795 (GeneID 5740629) | DRSC04310 | 3.62e7 | 4.68e7 | – | 1.89e7 | 2.06e7
CG43795 (GeneID 5740629) | DRSC04497 | 3.31e7 | 4.04e7 | – | 1.84e7 | 1.85e7
CG43795 (GeneID 5740629) | DRSC22826 | 2.81e7 | 4.48e7 | – | 1.41e7 | 2.17e7
GCS1 (GeneID 32073) | DRSC19744 | 2.70e7 | 3.00e7 | – | 1.27e7 | 1.39e7
CG14354 (GeneID 43120) | DRSC14817 | 4.37e7 | 4.12e7 | – | 2.13e7 | 1.79e7
CG12316 (GeneID 39650) | DRSC09879 | 3.52e7 | 4.33e7 | – | 1.60e7 | 2.90e7
Amt (GeneID 41841) | DRSC16055 | 3.72e7 | 4.44e7 | – | 1.83e7 | 7.35e7
CR1075 (GeneID 12798037) | DRSC12144 | 4.89e7 | 4.13e7 | – | 2.33e7 | 2.06e7
MED21 (GeneID 3354977) | DRSC20932 | 2.83e7 | 3.69e7 | – | 1.55e7 | 1.61e7
Cand1 (GeneID 34403) | DRSC01992 | 4.71e7 | – | – | 2.50e7 | –
CheA86a (GeneID 3772145) | DRSC12839 | 2.23e7 | 3.24e7 | – | 1.06e7 | 1.48e7
Hr4 (GeneID 31162) | DRSC18495 | 4.23e7 | 4.00e7 | 2.1 | 1.99e7 | 2.25e7
Hr4 (GeneID 31162) | DRSC18599 | 3.60e7 | 7.55e7 | 2.1 | 1.72e7 | 2.79e7
Hr4 (GeneID 31162) | DRSC22269 | 2.31e7 | 4.02e7 | – | 1.37e7 | 1.62e7
Hr4 (GeneID 31162) | DRSC22677 | 1.71e7 | 3.65e7 | – | 1.10e7 | 1.67e7
Hr4 (GeneID 31162) | DRSC23080 | 5.21e7 | 3.24e7 | – | 2.52e7 | 1.41e7
Hr4 (GeneID 31162) | DRSC23251 | 2.93e7 | 3.30e7 | – | 1.93e7 | 1.66e7
flz (GeneID 35902) | DRSC07109 | 2.77e7 | 3.16e7 | – | 1.26e7 | 1.41e7
CG8128 (GeneID 32504) | DRSC20084 | 2.49e7 | 3.21e7 | – | 1.22e7 | 1.53e7
CG14322 (GeneID 42124) | DRSC14801 | 2.95e7 | 3.61e7 | – | 4.43e7 | 1.58e7
